The record followed here is publication PMC9997661.

Chains of the proteins cited; added tags and fusions are not shown.
UniProt P61204: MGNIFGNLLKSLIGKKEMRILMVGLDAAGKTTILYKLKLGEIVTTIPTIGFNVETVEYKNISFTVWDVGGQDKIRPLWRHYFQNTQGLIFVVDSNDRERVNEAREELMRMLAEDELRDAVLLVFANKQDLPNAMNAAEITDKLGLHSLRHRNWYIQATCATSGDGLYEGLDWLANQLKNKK
UniProt P62330: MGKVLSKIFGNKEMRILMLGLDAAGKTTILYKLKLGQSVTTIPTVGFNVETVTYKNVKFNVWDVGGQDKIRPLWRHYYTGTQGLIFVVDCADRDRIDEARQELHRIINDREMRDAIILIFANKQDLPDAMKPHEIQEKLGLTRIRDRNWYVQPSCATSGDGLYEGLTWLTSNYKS
UniProt P84077: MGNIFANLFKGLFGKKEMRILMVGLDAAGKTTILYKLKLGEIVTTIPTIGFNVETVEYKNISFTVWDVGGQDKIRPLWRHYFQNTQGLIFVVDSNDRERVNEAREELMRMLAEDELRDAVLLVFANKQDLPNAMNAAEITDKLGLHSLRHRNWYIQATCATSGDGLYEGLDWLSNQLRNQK

Assay [1] concerns the target T1, GST-GGA3-GAT recombinant fusion protein (UniProt Q9NZ52).
T1 sequence: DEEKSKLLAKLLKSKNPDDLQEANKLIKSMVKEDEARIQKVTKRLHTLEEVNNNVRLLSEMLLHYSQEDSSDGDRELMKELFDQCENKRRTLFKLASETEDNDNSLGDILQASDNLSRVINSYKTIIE
As to the kind of experiment: pull-down; ARF-GTP pulldown: 80 ug GST-GGA3-GAT immobilised on glutathione agarose in spin columns, 1 mg PC3 lysate, 2 h at 4°C, eluted with 10 mM glutathione; immunoblot for mNG or ARF3/ARF6; cells with Scr or PSD shRNA for the endogenous ARFs; only the target purified. Background: A western blot detects proteins with antibodies after separation by electrophoresis.

Assay [2] has as its target mNeonGreen (mNG)-tagged ARF3 (UniProt P61204). Put plainly: co-IP; 1 mg lysate of PC3 cells expressing mNG or ARF3-mNG, mNG-Trap Agarose beads (ChromoTek); immunoblot.
For assay [3], the target named is ARF3 GTPase (endogenous) (human (endogenous in PC3)) (UniProt P61204). As to the kind of experiment: co-IP; 1 mg PC3 cell lysate (RIPA lysis buffer) with 2 ug anti-ARF3 antibody (610784; BD) overnight at 4°C, anti-mouse agarose 1 h; mouse agarose as IgG control; washed three times in RIPA; immunoblot.

Results are given in words; binding and its absence hold for the method and conditions named. In cells and extracts the contact can be indirect. Some entries that bind do so weakly or less than the wild type. For part of these data: Sequences can lack the tags named with a protein.

As to “mNeonGreen (mNG)-tagged ARF3 (from UniProt P61204 1-181)”, in assay [1], the binding result is “binds”. For the molecule “ARF3 GTPase (endogenous) (from UniProt P61204 1-181)”, the binding result in assay [1] was “binds”. The same measure, in the same setting: for “ARF6 GTPase (endogenous) (from UniProt P62330 1-175)” the value was “binds”. Turning to “mNeonGreen (mNG)-tagged ARF1 (from UniProt P84077 1-181)”, in assay [1], the binding entry was “binds”.

B1: RAB11FIP4 (endogenous) (protein, UniProt Q86YS3 1-637)
chain: MAGGAGWSGAPAALLRSVRRLREVFEVCGRDPDGFLRVERVAALGLRFGQGEEVEKLVKYLDPNDLGRINFKDFCRGVFAMKGCEELLKDVLSVESAGTLPCAPEIPDCVEQGSEVTGPTFADGELIPREPGFFPEDEEEAMTLAPPEGPQELYTDSPMESTQSLEGSVGSPAEKDGGLGGLFLPEDKSLVHTPSMTTSDLSTHSTTSLISNEEQFEDYGEGDDVDCAPSSPCPDDETRTNVYSDLGSSVSSSAGQTPRKMRHVYNSELLDVYCSQCCKKINLLNDLEARLKNLKANSPNRKISSTAFGRQLMHSSNFSSSNGSTEDLFRDSIDSCDNDITEKVSFLEKKVTELENDSLTNGDLKSKLKQENTQLVHRVHELEEMVKDQETTAEQALEEEARRHREAYGKLEREKATEVELLNARVQQLEEENTELRTTVTRLKSQTEKLDEERQRMSDRLEDTSLRLKDEMDLYKRMMDKLRQNRLEFQKEREATQELIEDLRKELEHLQMYKLDCERPGRGRSASSGLGEFNARAREVELEHEVKRLKQENYKLRDQNDDLNGQILSLSLYEAKNLFAAQTKAQSLAAEIDTASRDELMEALKEQEEINFRLRQYMDKIILAILDHNPSILEIKH
In the case of B1, the binding result in assay [2] and in assay [3] was “binds” each time.
